# Data as given in PubChem BioAssay AID1053208 (Peter MacCallum Cancer Centre, 2014)
# Assay: 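Synthetic lethal interactions between gene loss and doxorubicin in osteosarcoma cells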 (primary screen)
# System: mouse osteosarcoma cells, early-passage culture from an engineered mouse model of fibroblastic bone tumour
# Knock-down reagent: siRNA pool against mouse genes, 40 nM
# Timing: about 120 h (48 h before drug, then 72 h with drug)
# Treatment: doxorubicin 100 nM for 72 h, roughly 30-40% inhibitory dose
# Detection: 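Viability read as ATP luminescence after 72 h of 100 nM doxorubicin or none, duplicate wells averaged, scaled to non-targeting siRNA, then expressed as robust z-scores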
# Scale: viability z-score with doxorubicin and doxorubicin viability vs non-targeting: higher = more viable cells under doxorubicin; viability z-score without drug: higher = more viable cells with knock-down alone; z-score of drug to no-drug ratio: higher = less drug sensitisation by knock-down
# Active means: 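Called active if knock-down leaves viability unchanged without drug (z within -2 to 2) but lowers it with doxorubicin (z at or under -2)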
# This is an unselected part of about 17,000 reagents tested. 788 of them (4.7%) were called active. 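Calls rest on z-score classes alone; an extra cut-off of viability at most 70% of control was not applied to them.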
gene knocked down,PubChem SID,combined z-score class,viability z-score with doxorubicin,viability z-score without drug,z-score of drug to no-drug ratio,doxorubicin viability vs non-targeting,Call
Skint9 (GeneID 329918),SID152332587,no change with or without drug,-1.12,0.67,-1.46,0.84,inactive
Or1j12 (GeneID 258953),SID152318520,no change with or without drug,-0.11,-1.85,1.46,0.93,inactive
Ufl1 (GeneID 67490),SID152268899,no change with or without drug,-0.67,1.18,-1.35,0.88,inactive
Creb3l1 (GeneID 26427),SID152295874,no change with or without drug,1.01,1.85,-0.11,1.03,inactive
Slitrk4 (GeneID 245446),SID152338218,no change with or without drug,-0.79,-1.52,0.34,0.87,inactive
Pcdhb5 (GeneID 93876),SID152312554,no change with or without drug,1.46,1.52,0.56,1.07,inactive
Tbc1d17 (GeneID 233204),SID152341879,no change with or without drug,-0.22,-0.51,0.22,0.92,inactive
Dpy19l3 (GeneID 233115),SID152301038,no change with or without drug,-0.67,0.17,-0.67,0.88,inactive
Rcn2 (GeneID 26611),SID152294468,no change with or without drug,0.67,-0.51,1.24,1,inactive
Cxcr3 (GeneID 12766),SID152308116,no change with or without drug,0.9,-0.84,1.69,1.02,inactive
H4c9 (GeneID 319158),SID152296100,no change with or without drug,1.12,1.69,0.11,1.04,inactive
Laptm4a (GeneID 17775),SID152285455,low cell count with doxorubicin only,-2.92,-0.84,-2.47,0.68,active
Or52m1 (GeneID 258322),SID152335396,no change with or without drug,-0.11,-0.84,0.56,0.93,inactive
Timp1 (GeneID 21857),SID152293002,no change with or without drug,0.22,-0.17,0.45,0.96,inactive

Records listed above with an active call, once more:
gene knocked down,PubChem SID,combined z-score class,viability z-score with doxorubicin,viability z-score without drug,z-score of drug to no-drug ratio,doxorubicin viability vs non-targeting,Call
Laptm4a (GeneID 17775),SID152285455,low cell count with doxorubicin only,-2.92,-0.84,-2.47,0.68,active

The listing continues:
gene knocked down,PubChem SID,combined z-score class,viability z-score with doxorubicin,viability z-score without drug,z-score of drug to no-drug ratio,doxorubicin viability vs non-targeting,Call
Rbl2 (GeneID 19651),SID152261957,no change with or without drug,0.9,0.17,0.9,1.02,inactive
Svs6 (GeneID 20945),SID152293033,no change with or without drug,1.35,-1.85,3.15,1.06,inactive
Golt1a (GeneID 68338),SID152292524,no change with or without drug,0.22,-0.34,0.56,0.96,inactive
Wap (GeneID 22373),SID152286874,high cell count with doxorubicin only,2.36,1.85,1.12,1.15,inactive
Plekho1 (GeneID 67220),SID152280988,no change with or without drug,0.11,1.18,-0.56,0.95,inactive
Gpr19 (GeneID 14760),SID152331324,no change with or without drug,-0.79,-0.84,-0.11,0.87,inactive
Cd44 (GeneID 12505),SID152317200,no change with or without drug,0.67,-1.01,1.57,1,inactive
Sf3b6 (GeneID 66055),SID152320279,low cell count with and without drug,-6.52,-8.94,-1.35,0.36,inactive
Psmf1 (GeneID 228769),SID152290412,no change with or without drug,0.22,1.35,-0.56,0.96,inactive
Klk15 (GeneID 317652),SID152291748,no change with or without drug,-0.45,0.51,-0.67,0.9,inactive
Or10aa3 (GeneID 258711),SID152292199,no change with or without drug,0.67,0.17,0.67,1,inactive
Mpv17l2 (GeneID 234384),SID152286330,no change with or without drug,0.67,-0.51,1.24,1,inactive
Pnmt (GeneID 18948),SID152296880,no change with or without drug,0,-0.17,0.22,0.94,inactive
Recql (GeneID 19691),SID152335988,no change with or without drug,0,-0.17,0.22,0.94,inactive
Ang2 (GeneID 11731),SID152276099,low cell count with doxorubicin only,-2.25,-0.51,-2.02,0.74,active
Gbp7 (GeneID 229900),SID152298759,no change with or without drug,0.9,0,1.01,1.02,inactive
Slc25a16 (GeneID 73132),SID152315743,no change with or without drug,0.34,0.17,0.34,0.97,inactive
Farp2 (GeneID 227377),SID152269239,no change with or without drug,-1.35,-0.51,-1.01,0.82,inactive
Gfpt1 (GeneID 14583),SID152310367,no change with or without drug,0.45,0.17,0.45,0.98,inactive
Flcn (GeneID 216805),SID152298197,no change with or without drug,0.9,0.84,0.45,1.02,inactive
